US20230183325
For some assays here: The exact form of at least one protein or probe is not confirmed. For some assays here: Where a protein sequence is shown, tags need not be part of it.

Chains of the proteins cited; added tags and fusions are not shown. Residues count along the entry.
UniProt P01024, 672-748: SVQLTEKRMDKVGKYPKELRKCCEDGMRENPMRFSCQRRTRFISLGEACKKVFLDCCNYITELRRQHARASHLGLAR

Key:
[1] = molecular target: C3a (complement anaphylatoxin C3a) (Homo sapiens) (UniProt P01024); assay: activity in cells; conditions: L-RNA/L-DNA (mirror-image); L-deoxy at dU7, dG14, dA15, dU28, dU30, dC38, remaining positions L-RNA; C3a 0.1 ug/ml, aptamer 3 ug/ml (p=0.017), 24 h, human corneal keratocytes; 1 ug/ml 65% and 2 ug/ml 55% not significant, 5 ug/ml 51% (p=0.017); aptamer raised to C5a; mirror-image nucleic acid; scale: % aSMA-positive cells
[2] = molecular target: T1, C5a (complement anaphylatoxin C5a) (Homo sapiens) (UniProt P01031); assay: activity in cells; conditions: L-RNA/L-DNA (mirror-image); L-deoxy at dU7, dG14, dA15, dU28, dU30, dC38, remaining positions L-RNA; C5a 0.1 ug/ml, aptamer 1 ug/ml, 24 h, human corneal keratocytes; 2 ug/ml 33%, 3 ug/ml 29%, 5 ug/ml 34%, all p<0.001; functional inhibition, direct binding not measured; mirror-image nucleic acid; scale: % aSMA-positive cells
T1 sequence: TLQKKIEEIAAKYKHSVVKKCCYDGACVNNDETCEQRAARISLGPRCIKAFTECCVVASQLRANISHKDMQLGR

Sequence: GCGAUGUGGUGGUGAAGGGUUGUUGGGUGUCGACGCACGC [C5a aptamer (L-RNA/L-DNA)]
- functional effect of the aptamer [1]: 47
- functional effect of the aptamer [2]: 31
